Patent US20120207770A1 (NANYANG TECHNOLOGICAL UNIVERSITY, published 2012)
No constants are given. Whether binding was seen depends on the method and setting. For some of these results: Binding seen in cells or lysates may run through a third protein. Some entries that bind do so weakly or less than the wild type.

Protein sequences, listed by entry. Tags and fused reporters are not part of them. Residues count along the entry.
UniProt P05556: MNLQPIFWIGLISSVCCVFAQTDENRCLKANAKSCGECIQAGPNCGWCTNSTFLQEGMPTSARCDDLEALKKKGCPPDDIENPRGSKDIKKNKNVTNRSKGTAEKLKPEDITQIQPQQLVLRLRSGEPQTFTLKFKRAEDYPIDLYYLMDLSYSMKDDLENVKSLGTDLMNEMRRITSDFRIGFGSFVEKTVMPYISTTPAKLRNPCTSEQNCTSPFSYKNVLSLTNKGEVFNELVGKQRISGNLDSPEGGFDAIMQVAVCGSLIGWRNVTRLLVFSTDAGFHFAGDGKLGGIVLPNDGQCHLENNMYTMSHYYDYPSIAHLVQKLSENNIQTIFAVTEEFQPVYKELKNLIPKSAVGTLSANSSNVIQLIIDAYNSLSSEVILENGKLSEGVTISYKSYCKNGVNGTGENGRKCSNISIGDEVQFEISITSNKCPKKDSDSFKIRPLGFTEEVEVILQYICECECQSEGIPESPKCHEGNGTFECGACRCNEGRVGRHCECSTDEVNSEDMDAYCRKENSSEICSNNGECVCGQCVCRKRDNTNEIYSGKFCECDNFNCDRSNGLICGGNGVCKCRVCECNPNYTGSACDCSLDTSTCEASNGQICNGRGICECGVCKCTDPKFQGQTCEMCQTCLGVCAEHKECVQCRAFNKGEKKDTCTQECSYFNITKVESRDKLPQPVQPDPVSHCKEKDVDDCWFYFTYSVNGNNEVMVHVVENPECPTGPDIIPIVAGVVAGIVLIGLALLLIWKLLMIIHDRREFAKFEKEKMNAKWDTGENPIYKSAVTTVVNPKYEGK
UniProt P18084, residues 24-799: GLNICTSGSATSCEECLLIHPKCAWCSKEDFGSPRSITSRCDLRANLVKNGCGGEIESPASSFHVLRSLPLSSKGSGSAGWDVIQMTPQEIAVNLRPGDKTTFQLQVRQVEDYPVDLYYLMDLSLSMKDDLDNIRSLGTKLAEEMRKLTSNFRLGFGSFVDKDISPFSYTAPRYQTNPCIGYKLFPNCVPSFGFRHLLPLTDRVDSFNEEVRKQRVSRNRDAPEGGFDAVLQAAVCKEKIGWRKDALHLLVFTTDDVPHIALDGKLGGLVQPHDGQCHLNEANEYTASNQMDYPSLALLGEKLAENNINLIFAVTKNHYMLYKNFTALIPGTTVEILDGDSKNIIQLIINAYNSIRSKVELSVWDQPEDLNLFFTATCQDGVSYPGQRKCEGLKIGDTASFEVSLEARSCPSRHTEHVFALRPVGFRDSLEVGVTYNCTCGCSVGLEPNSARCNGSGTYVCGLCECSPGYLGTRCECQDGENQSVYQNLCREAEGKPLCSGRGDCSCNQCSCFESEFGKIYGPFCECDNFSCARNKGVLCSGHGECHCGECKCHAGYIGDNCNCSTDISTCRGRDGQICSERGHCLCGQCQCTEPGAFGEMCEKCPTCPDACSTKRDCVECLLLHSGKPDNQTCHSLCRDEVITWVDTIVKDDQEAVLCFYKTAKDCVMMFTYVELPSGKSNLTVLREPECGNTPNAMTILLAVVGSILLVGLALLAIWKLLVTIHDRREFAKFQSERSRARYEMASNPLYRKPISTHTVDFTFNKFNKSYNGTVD

Key:
[1] = molecular target: integrin β1, endogenous, on A-5RT3 tumor cells and A-5RT3-induced tumors (human) (UniProt P05556); assay: summary of the filing's results
[2] = molecular target: integrin β5, endogenous, on A-5RT3 tumor cells and A-5RT3-induced tumors (human) (UniProt P18084); assay: summary of the filing's results
[3] = molecular target: integrin β1, endogenous, on A-5RT3 tumor cells and A-5RT3-induced tumors (human) (UniProt P05556); assay: in situ proximity ligation assay
[4] = molecular target: integrin β5, endogenous, on A-5RT3 tumor cells and A-5RT3-induced tumors (human) (UniProt P18084); assay: in situ proximity ligation assay
[5] = molecular target: integrin β1, endogenous, on A-5RT3 tumor cells and A-5RT3-induced tumors (human) (UniProt P05556); assay: in situ proximity ligation assay on tumors
[6] = molecular target: integrin β1, endogenous, on A-5RT3 tumor cells and A-5RT3-induced tumors (human) (UniProt P05556); assay: in situ proximity ligation assay on A-5RT3 cells
[7] = molecular target: integrin β5, endogenous, on A-5RT3 tumor cells and A-5RT3-induced tumors (human) (UniProt P18084); assay: in situ proximity ligation assay on A-5RT3 cells
[8] = molecular target: integrin β1, endogenous, on A-5RT3 tumor cells and A-5RT3-induced tumors (human) (UniProt P05556); assay: in situ proximity ligation assay on tumor biopsies
[9] = molecular target: integrin β5, endogenous, on A-5RT3 tumor cells and A-5RT3-induced tumors (human) (UniProt P18084); assay: in situ proximity ligation assay on tumor biopsies
[10] = molecular target: integrin β1, endogenous, on A-5RT3 tumor cells and A-5RT3-induced tumors (human) (UniProt P05556); assay: co-immunoprecipitation from tumor lysates, immunoblot
[11] = molecular target: integrin β5, endogenous, on A-5RT3 tumor cells and A-5RT3-induced tumors (human) (UniProt P18084); assay: as above
[12] = molecular target: integrin β1, endogenous, on A-5RT3 tumor cells and A-5RT3-induced tumors (human) (UniProt P05556); assay: in situ proximity ligation assay on A-5RT3 cells and induced tumors
[13] = molecular target: integrin β5, endogenous, on A-5RT3 tumor cells and A-5RT3-induced tumors (human) (UniProt P18084); assay: as above

- binding [1]: binds
- binding [2]: binds
- binding [3]: binds
- binding [4]: binds
- binding [5]: binds
- binding [6]: binds
- binding [7]: binds
- binding [8]: binds
- binding [9]: binds
- binding [10]: binds
- binding [11]: binds
- binding [12]: binds
- binding [13]: binds
B1: tumor-derived (endogenous) ANGPTL4, detected as cANGPTL4, of A-5RT3 and other human tumor cells (ligand, UniProt Q9BY76 164-406, looked up)
chain: RLPEMAQPVDPAHNVSRLHRLPRDCQELFQVGERQSGLFEIQPQGSPPFLVNCKMTSDGGWTVIQRRHDGSVDFNRPWEAYKAGFGDPHGEFWLGLEKVHSITGDRNSRLAVQLRDWDGNAELLQFSVHLGGEDTAYSLQLTAPVAGQLGATTVPPSGLSVPFSTWDQDHDLRRDKNCAKSLSGGWWFGTCSHSNLNGQYFRSIPQQRQKLKKGIFWKTWRGRYYPLQATTMLIQPMAAEAAS
